Measured values from PubChem BioAssay AID1671190 (National Center for Advancing Translational Sciences (NCATS), 2021).
The campaign covered roughly 580,000 compounds. About 6,100 (1.1%) were called active. This list was built around the results that the source calls inconclusive (neither active nor inactive); the mix of calls is not that of the screen. Calls follow the shape of the dose curve; as a rule, active = well fitted inhibition curve with a large enough effect; inconclusive = small, poorly fitted or top-dose-only effect, or another doubt; inactive = no such curve, though single readings can be large or run the other way. Potencies of inconclusive entries are doubtful fits and often do not repeat.

Sequences of proteins named here, by UniProt entry; tags and fusion partners are left off. A change or cut given only in a name is not applied to a line headed by its entry.
UniProt P18054: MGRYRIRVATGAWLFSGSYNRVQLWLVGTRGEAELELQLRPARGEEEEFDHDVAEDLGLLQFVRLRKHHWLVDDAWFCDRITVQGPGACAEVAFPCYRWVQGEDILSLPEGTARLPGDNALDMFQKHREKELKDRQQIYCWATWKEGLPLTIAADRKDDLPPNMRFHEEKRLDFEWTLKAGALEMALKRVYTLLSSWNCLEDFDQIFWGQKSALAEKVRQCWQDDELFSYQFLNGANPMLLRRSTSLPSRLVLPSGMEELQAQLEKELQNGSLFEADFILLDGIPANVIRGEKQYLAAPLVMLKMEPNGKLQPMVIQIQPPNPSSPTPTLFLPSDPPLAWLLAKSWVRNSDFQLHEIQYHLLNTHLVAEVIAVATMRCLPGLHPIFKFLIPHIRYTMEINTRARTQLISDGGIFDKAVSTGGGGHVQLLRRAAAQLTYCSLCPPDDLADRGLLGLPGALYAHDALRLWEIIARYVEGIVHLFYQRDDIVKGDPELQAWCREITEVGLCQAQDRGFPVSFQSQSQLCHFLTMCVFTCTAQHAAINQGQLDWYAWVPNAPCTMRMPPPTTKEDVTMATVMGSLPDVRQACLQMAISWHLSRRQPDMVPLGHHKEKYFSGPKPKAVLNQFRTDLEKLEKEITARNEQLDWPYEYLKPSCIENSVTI

These compounds were tested against Polyunsaturated fatty acid lipoxygenase ALOX12 (Homo sapiens) (UniProt P18054) (assay: Primary qHTS assay for inhibitors of human arachidonate 12S-lipoxygenase (ALOX12): Round 2). Conditions: purified 12hLO, xylenol orange hydroperoxide absorbance; series mostly up to 108 µM.
Procedure, shortened: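 Hydroperoxide product was detected by ferrous iron/xylenol orange as the 573 to 405 nm absorbance ratio. Arachidonic acid at 40 uM (final) was turned over for 30 min at room temperature by 150 nM human 12hLO, pH 7.0 Hepes buffer, after 15 min compound preincubation.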
Potency is read from the fitted curve at half-maximal effect.

Structure (SMILES)	Potency
O=C(/C(Br)=C/Nc1ccc(Cl)c(Cl)c1)C(F)(F)F	inconclusive: 6.31 µM [inhibitor, full curve, poor fit]
COc1cc(C2c3c(-c4cc(Cl)c(C)cc4O)n[nH]c3C(=O)N2Cc2ccco2)ccc1O (centres undefined)	inconclusive: 39.8 µM [inhibitor, partial curve, poor fit]
COC(=O)[C@@H]1Cc2ncn(Cc3ccc(Cl)cc3)c2CN1C(=O)c1ccc(C(F)(F)F)cc1	inactive
COc1ccc(C2C(C#N)=C(C)NC(C)=C2C#N)c(OC)c1	inactive
CC(C)NC(=O)COC(=O)c1cc(=O)c2ccccc2o1	inactive
Brc1ccc(-c2nn3c(-c4ccco4)nnc3s2)o1	inconclusive: 39.8 µM [inhibitor, single point]
CCCC(=O)NC(=S)Nc1cccc(NC(=O)c2ccccc2Cl)c1	inactive
Cc1cc(=O)c(C(=O)N2CCN(S(=O)(=O)c3ccccc3C#N)CC2)nn1-c1ccccc1F	inactive
COc1ccccc1CNc1ncnc2ccc(-c3ccccc3C#N)cc12	inconclusive: 3.98 µM [inhibitor, full curve, poor fit]
Cc1cccc(-c2nnc(SCC3CNC(=O)O3)n2-c2ccc(Cl)cc2)c1 (centres undefined)	inconclusive: 39.8 µM [inhibitor, partial curve]
COc1cccc(OCCCN2CCN(S(=O)(=O)c3ccc(NC(C)=O)cc3)CC2)c1	inconclusive: 126 µM [inhibitor, partial curve, poor fit]
CC1CCN(C(=O)C(C)OC(=O)CSc2ccc([N+](=O)[O-])cc2)CC1 (centres undefined)	inconclusive: 89.1 µM [inhibitor, single point]
CN(C)S(=O)(=O)N(CC(=O)NCCSCc1ccc(Cl)cc1Cl)c1ccccc1	inconclusive: 79.4 µM [inhibitor, partial curve, poor fit]
COC(=O)C(C#N)c1nc2ccccc2nc1NC1CC1 (centres undefined)	inconclusive: 50.1 µM [inhibitor, partial curve, poor fit]
COc1ccccc1Nc1nc(N)nc(CSc2nc(C)cc(C)n2)n1	inactive
COc1ccc(C2CC(=O)Oc3cc(C)c(Cl)cc32)cc1 (centres undefined)	inconclusive: 39.8 µM [inhibitor, partial curve]
COc1ccc(-c2[nH]ncc2Oc2ccccc2OC)c(O)c1	inconclusive: 50.1 µM [inhibitor, partial curve, poor fit]
COc1ccc(CCNC(=O)c2cc3c(cc2Cl)N2CCCCCC2=NS3(=O)=O)cc1	inconclusive: 5.62 µM [inhibitor, full curve, poor fit]
COC(=O)Nc1ccccc1C(=O)N1CCC(O)(c2ccc(Cl)cc2)CC1	inconclusive: 0.891 µM [inhibitor, full curve, poor fit]
O=C(CCCn1c(=O)c2ccccc2n(CC(=O)NCc2ccco2)c1=O)NCc1ccco1	inactive
COc1ccccc1C1CN(Cc2cccc(OCCO)c2)Cc2ccccc2O1 (centres undefined)	inconclusive: 126 µM [inhibitor, single point]
O=C1CCCCC(C(=O)NCc2ccc(Cl)cc2)N1 (centres undefined)	inconclusive: 17.8 µM [inhibitor, full curve]

Looked up by compound from the list above, 2 records:
Structure (SMILES)	Potency
O=C(CCCn1c(=O)c2ccccc2n(CC(=O)NCc2ccco2)c1=O)NCc1ccco1	inactive
COc1ccc(C2C(C#N)=C(C)NC(C)=C2C#N)c(OC)c1	inactive

Continued.

Structure (SMILES)	Potency
COc1cc(C2CC(=O)N3CN(c4ccccc4C)CSC3=C2C#N)cc(OC)c1OC (centres undefined)	inconclusive: 2.24 µM [inhibitor, full curve, poor fit]
NC(CCc1ccccc1)c1csc(Nc2ccc(C(=O)c3ccccc3)cc2)n1 (centres undefined)	inconclusive: 112 µM [inhibitor, partial curve, poor fit]
COc1ccc(-c2nc3c(c(=O)[nH]2)CCN(C(=O)c2ccccc2)C3)cc1	inconclusive: 79.4 µM [inhibitor, single point]
O=C1C(Nc2cccc(O)c2)=C(N2CCCCC2)C(=O)c2ccccc21	inconclusive: 44.7 µM [inhibitor, partial curve]
Clc1ccc(-c2nc3ccc(Br)cn3c2Cc2ccsc2)cc1	inconclusive: 44.7 µM [inhibitor, partial curve, poor fit]
Cc1cnc2c(S(=O)(=O)N3CCC(NS(=O)(=O)c4ccccc4)CC3)cccc2c1	inconclusive: 141 µM [inhibitor, single point]
COc1ccc(C(C)C)cc1S(=O)(=O)NCCc1c(C)[nH]c2c(Cl)cccc12	inconclusive: 44.7 µM [inhibitor, partial curve, poor fit]
O=C(COC(=O)c1nc(Cl)ccc1Cl)NC1CCS(=O)(=O)C1 (centres undefined)	inconclusive: 79.4 µM [inhibitor, single point]
Cc1ccc2[nH]c3c(c2c1)CN(C(=O)CN1c2ccc(F)cc2CCC1C)CC3 (centres undefined)	inconclusive: 35.5 µM [inhibitor, partial curve, poor fit]
CCCn1c(=O)[nH]c(=O)c2c1nc(-c1ccc(OC(F)F)cc1)n2CCN1CCOCC1	inconclusive: 5.01 µM [inhibitor, full curve, poor fit]
Cc1ccc(-n2c(=O)c3c4c(sc3n3c(=S)[nH]nc23)CCC4)cc1	inconclusive: 1.26 µM [inhibitor, partial curve, poor fit]
Cc1ccc(CN(C)C(=O)CN2C(=O)NC3(CCCc4ccccc43)C2=O)c(C)c1 (centres undefined)	inconclusive: 126 µM [inhibitor, single point]
COC(=O)C1=C(C)N(Cc2ccc(C(F)(F)F)cc2)C(=NCc2ccccc2)NC1c1cccc(C(F)(F)F)c1 (centres undefined)	inconclusive: 44.7 µM [inhibitor, partial curve, poor fit]
CCSc1nnc(-c2nn(C)c3c2CN(S(=O)(=O)c2ccc4c(c2)CCC4)CC3)n1C	inconclusive: 31.6 µM [inhibitor, partial curve, poor fit]
Oc1ccc(C2CNCc3sccc32)cc1O (centres undefined)	inconclusive: 35.5 µM [inhibitor, partial curve]
O=C1CCC2(CCN1Cc1ccccc1)CCN(S(=O)(=O)c1cccs1)CC2	inactive
CCc1c(-c2ccccc2)nc2sc3c(c2c1N)CCCC3	inconclusive: 35.5 µM [inhibitor, single point]
C/C(=N\NC(=O)C1CC1)c1ccc(C)o1	inconclusive: 17.8 µM [inhibitor, single point]
C=CCc1cccc(/C=N/NC(=O)CNc2ccccc2OC)c1O	inconclusive: 50.1 µM [inhibitor, partial curve]
Cc1nc(N2CCN(Cc3nc4ccccc4[nH]3)CC2)c2oc3ccccc3c2n1	inactive
CC(C)CN(CC(=O)NC(=O)NC(C)C)C1CC1	inactive
Cc1ccc(NC(=O)Cn2cc(S(=O)(=O)Cc3ccccc3)c3ccccc32)cc1C	inconclusive: 50.1 µM [inhibitor, partial curve, poor fit]

Structure (SMILES)	Potency
CN(C)CCCNc1c2ccccc2nc2ccccc12	inconclusive: 44.7 µM [inhibitor, single point]
Cc1ccc(CNC(=O)c2ccc(N3CCC4(CC3)CC(c3ccccc3)=NO4)c(N)c2)cc1	inactive
C#CCN(C[C@H]1[C@H](OC(=O)NCC2CCCCC2)[C@H](OC(=O)NCC2CCCCC2)C[C@H]2C(=O)N(c3ccccc3)C(=O)[C@@H]12)S(=O)(=O)c1ccc(C)cc1	active: 44.7 µM
Cc1cc2c(=Cc3ccc(N(C)C)cc3)c3ccccc3n2[n+]1C	inactive
O=C(Nc1cccc(F)c1)c1cnc2c(c1)N([S+](=O)([O-])c1cccnc1)CCC2	inactive
O=C(NCc1ccccc1)C1=C[C@@H](C2CCCCC2)C[C@@H](OCc2ccc(CO)cc2)O1	inconclusive: 44.7 µM [inhibitor, partial curve, poor fit]
Cc1cccc(NC(=O)CNC(=O)CSc2nc(N)cc(N)n2)c1C	inconclusive: 10 µM [inhibitor, single point]
O=C(CCc1ccccc1F)NC1CCCN(C2CCCCCC2)C1 (centres undefined)	inactive
CC(C)C(c1nnnn1Cc1ccc(F)cc1)N1CCN(c2ccc(O)cc2)CC1 (centres undefined)	inconclusive: 44.7 µM [inhibitor, partial curve, poor fit]
CN1CCC/C1=C/C=C1\SC(=S)NC1=O	inconclusive: 50.1 µM [inhibitor, partial curve]
Cc1c(N=Cc2cc(Br)cc(Br)c2O)cccc1C(=O)O	active: 50.1 µM
CCOCCCNC(=O)CN1C(=O)CCn2nc(-c3cccn3C)cc21	inconclusive: 63.1 µM [inhibitor, partial curve, poor fit]
Cc1cc(C)cc(Nc2nc(C)cc(=O)n2CC(=O)Nc2cccc(C(F)(F)F)c2)c1	inconclusive: 25.1 µM [inhibitor, full curve]
CN(CC(=O)Nc1ccc(Cl)c(Cl)c1)C(=O)/C=C/c1ccc(F)cc1	inconclusive: 31.6 µM [inhibitor, full curve, poor fit]
CC(C)C(=O)Nc1c2c(nn1-c1ccc([N+](=O)[O-])cc1)CS(=O)(=O)C2	inconclusive: 141 µM [inhibitor, single point]
Cc1ccccc1NC(=O)CCC(=O)OCC(=O)c1ccc(-c2ccccc2)cc1	inactive
Cc1cc(C)c(S(=O)(=O)Nc2ccc(S(=O)(=O)C3CCCC3)cc2)c(C)c1	inconclusive: 35.5 µM [inhibitor, partial curve, poor fit]
CC(=O)N1CCC(C(=O)NCc2ccccc2)(N(C(=O)c2ccc(C)cc2)c2ccccc2F)CC1	inactive
CCCCCCCNC(=O)Cc1cccs1	inconclusive: 35.5 µM [inhibitor, single point]
Cc1cc(C(=O)N/N=C/c2ccc(-c3cccc([N+](=O)[O-])c3)o2)n[nH]1	inactive

Arranged by molar mass (rising): part of the list above
Structure (SMILES)	Potency
Cc1cc(C(=O)N/N=C/c2ccc(-c3cccc([N+](=O)[O-])c3)o2)n[nH]1	inactive
COc1ccccc1C1CN(Cc2cccc(OCCO)c2)Cc2ccccc2O1 (centres undefined)	inconclusive: 126 µM [inhibitor, single point]
COc1cccc(OCCCN2CCN(S(=O)(=O)c3ccc(NC(C)=O)cc3)CC2)c1	inconclusive: 126 µM [inhibitor, partial curve, poor fit]
